Reference: PubChem BioAssay AID1259283 (Sanger Institute, 2017)
The deposit covers 794 reagents; shown is a random part of them. Of all reagents, 14 (1.8%) were called active. 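Calls reflect only viability loss without drug; drug synergy does not enter the call.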 A number with no mark means an inactive call. No viability above 1 is reported: the scale is capped. Not all columns of the deposit are shown. Not given: the amount of reagent, the time to read-out.

Assay: 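Kinases whose silencing adds to targeted drugs in killing colon cancer cells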 (primary screen)
Cells: HT115 colorectal cancer cells
Knock-down reagent: siRNA pool against human genes
Treatment: anchor drug given one day after siRNA: BYL719 at 1 µM, cetuximab at 5 µg/ml, trametinib at 10 nM, or DMSO vehicle alone
Read-out: 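Per-drug synergy scores plus replicate-mean viability relative to non-targeting pool #2 wells, also expressed as a robust z-score based on control wells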
Scale: robust z-score, knock-down alone: higher = more viable cells after knock-down; viability, DMSO vs non-targeting control: higher = more viable cells; synergy score with BYL719: higher = stronger synergy with drug (synthetic lethal)
Rule for the call: 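a gene counts as essential when its robust z-score with knock-down alone is below -3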
Meaning of the calls: active = essential (z below -3, no drug); inactive = no change without drug

gene | robust z-score, knock-down alone | viability, DMSO vs non-targeting control (fraction of control) | synergy score with BYL719
EPHA1 | 0.752 | 0.997 | 0.167
MAP2K6 | 0.789 | 1 | 0.0342
MAPK9 | 0.595 | 0.982 | 0.0928
MARK3 | 0.789 | 1 | 0.1
RIOK3 | 0.789 | 1 | 0.101
BRD2 | -0.632 | 0.869 | -0.0577
SIK1 | 0.583 | 0.981 | 0.0696
NRAS | 0.701 | 0.992 | -0.0251
AK1 | 0.789 | 1 | 0.092
MAST4 | 0.789 | 1 | 0.00175
RYK | 0.462 | 0.97 | 0.273
SF3B1 | -1.67 | 0.773 | 0.0148
PI4KB | 0.789 | 1 | -0.0224
CTCF | 0.789 | 1 | 0.0109
CALM1 | 0.631 | 0.985 | 0.164
PIP4K2A | 0.789 | 1 | -0.0224
RIOK1 | -1.32 | 0.805 | -0.0364
ANKK1 | 0.378 | 0.962 | -0.0366
RET | 0.789 | 1 | -0.0224
EIF2AK1 | -0.13 | 0.915 | -0.0468
NUP62 | -0.731 | 0.86 | -0.0783
AKT2 | 0.584 | 0.981 | -0.00133
LMTK1 | -2.53 | 0.694 | -0.103
CDK5R1 | -0.65 | 0.867 | -0.0691
PDK1 | 0.00057 | 0.927 | -0.0907
JAK3 | 0.789 | 1 | -0.0224
AMER1 | 0.789 | 1 | -0.0224
MAK | -1.15 | 0.82 | 0.00585
PHKA2 | -0.0264 | 0.925 | -0.00574
STK17A | -1.04 | 0.831 | -0.099
EIF2AK2 | 0.0437 | 0.931 | -0.0105
CEP290 | 0.789 | 1 | -0.0224
MST1R | 0.737 | 0.995 | 0.112
ZC3H11A | 0.789 | 1 | 0.0213
NTN4 | -1.79 | 0.762 | 0.0343
NME3 | 0.789 | 1 | 0.164
MAP2K4 | -0.0533 | 0.922 | -0.0385
TP53 | -1.99 | 0.743 | 0.0314
GATA3 | -0.852 | 0.848 | 0.0244
PRKX | 0.789 | 1 | -0.0224
MAPK3 | 0.789 | 1 | -0.0224
DAPK1 | 0.0766 | 0.934 | 0.0675
BRD4 | 0.789 | 1 | 0.0649
EFNA5 | 0.789 | 1 | -0.0224
CSNK2A2 | -1.93 | 0.748 | -0.0191
MAST1 | 0.789 | 1 | -0.0224
SYNCRIP | -1.75 | 0.765 | 0.106
ATRX | 0.789 | 1 | -0.0224
CDADC1 | 0.597 | 0.982 | -0.0271
PDK2 | -0.524 | 0.879 | -0.126

7 entries from above, ordered by “robust z-score, knock-down alone”, descending:
gene | robust z-score, knock-down alone | viability, DMSO vs non-targeting control (fraction of control) | synergy score with BYL719
AK1 | 0.789 | 1 | 0.092
MAST4 | 0.789 | 1 | 0.00175
NRAS | 0.701 | 0.992 | -0.0251
SIK1 | 0.583 | 0.981 | 0.0696
RYK | 0.462 | 0.97 | 0.273
BRD2 | -0.632 | 0.869 | -0.0577
SF3B1 | -1.67 | 0.773 | 0.0148
